# This is one part of the list. Many values rest on one well or one pass, so single values are uncertain.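 The apoptosis fraction was the count of cleaved-PARP antibody-stained nuclei relative to all DNA-stained nuclei, imaged in 1,536-well plates. Screening doses were set so most cells survived, and baseline and induced cleaved-PARP levels vary greatly across cell lines.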
# How the values were obtained:
# Assay in all cases: cleaved PARP positive nuclei fraction relative to DMSO control; melanoma cells; higher = more apoptosis
# Conditions in all cases: library dose: low library concentration; 72 h
# MZ2-MEL = test system: MZ2-MEL
# MeWo = test system: MeWo
# RPMI7951 = test system: RPMI7951
# RVH-421 = test system: RVH-421
# SkMel28 = test system: SkMel28
# SkMel30 = test system: SkMel30
# SkMel5 = test system: SkMel5
# UACC257 = test system: UACC257
# UACC62 = test system: UACC62
# WM115 = test system: WM115
# WM1716 = test system: WM1716
# WM1745 = test system: WM1745
# WM3526 = test system: WM3526
# WM3619 = test system: WM3619
# WM451Lu = test system: WM451Lu
Compound,cleaved PARP positive nuclei fraction (MZ2-MEL) [%],cleaved PARP positive nuclei fraction (MeWo) [%],cleaved PARP positive nuclei fraction (RPMI7951) [%],cleaved PARP positive nuclei fraction (RVH-421) [%],cleaved PARP positive nuclei fraction (SkMel28) [%],cleaved PARP positive nuclei fraction (SkMel30) [%],cleaved PARP positive nuclei fraction (SkMel5) [%],cleaved PARP positive nuclei fraction (UACC257) [%],cleaved PARP positive nuclei fraction (UACC62) [%],cleaved PARP positive nuclei fraction (WM115) [%],cleaved PARP positive nuclei fraction (WM1716) [%],cleaved PARP positive nuclei fraction (WM1745) [%],cleaved PARP positive nuclei fraction (WM3526) [%],cleaved PARP positive nuclei fraction (WM3619) [%],cleaved PARP positive nuclei fraction (WM451Lu) [%]
"CN(NC(=O)CC(=O)NN(C)C(=S)c1ccccc1)C(=S)c1ccccc1 + CCN(CC)CCCCNc1ncc2cc(-c3cc(OC)cc(OC)c3)c(NC(=O)NC(C)(C)C)nc2n1 [PD173074] (first compound 0.006 µM, partner dose 0.1 µM)",57.6,397,77.3,64,203,52.1,357,201,88.4,229,233,295,219,269,28.3
"COc1ccc2c(c1)CCC1C2CCC2(C)C(NCCCCCCN3C(=O)C=CC3=O)CCC12 (stereo not given) + O=c1cc(-c2cccc3c2Sc2ccccc2S3)oc(N2CCOCC2)c1 [KU55933] (first compound 0.4 µM, partner dose 1 µM)",147,57.9,236,37.6,152,122,57.9,70.9,43,100,99.5,110,295,73.2,71.2
"CN(C)S(=O)(=O)c1ccc2c(c1)/C(=C/c1cc3c([nH]1)CCCC3)C(=O)N2 + COc1ccc(-c2ccc3c(N4CCOCC4)nc(N4C[C@@H](C)O[C@@H](C)C4)nc3n2)cc1CO [KU0063794] (first compound 0.4 µM, partner dose 0.02 µM)",198,83.4,84.8,23.2,168,35.4,86.9,214,188,101,149,112,72.8,99.1,55.3
"CN(C)S(=O)(=O)c1ccc2c(c1)/C(=C/c1cc3c([nH]1)CCCC3)C(=O)N2 + Cn1cc(/C=C2\C(=O)Nc3cccnc32)c2ccccc21 [GW441756] (first compound 0.4 µM, partner dose 0.4 µM)",109,32.7,78.6,28.6,173,30.3,99.1,152,86.5,147,87.6,91.1,59.7,69.1,17.9
"O=C1NC(=O)/C(=C/c2ccc(-c3ccc(F)cc3O)o2)S1 + O=c1cc(-c2cccc3c2Sc2ccccc2S3)oc(N2CCOCC2)c1 [KU55933] (first compound 1 µM, partner dose 1 µM)",71.5,108,80.1,214,119,196,102,67.6,108,220,65.5,89.1,93.1,160,61.4
"Oc1cc(-c2nc(-c3ccccc3)[nH]c2-c2ccncc2)ccc1Cl + O=c1cc(-c2cccc3c2Sc2ccccc2S3)oc(N2CCOCC2)c1 [KU55933] (first compound 0.2 µM, partner dose 1 µM)",118,52.6,38.4,48.7,23.8,54.3,51.3,27.8,164,195,33.9,113,95.6,84.1,364
"COc1cc2c(Oc3ccc4[nH]c(C)cc4c3F)ncnc2cc1OCCCN1CCCC1 [cediranib] + COc1ccc(-c2ccc3c(N4CCOCC4)nc(N4C[C@@H](C)O[C@@H](C)C4)nc3n2)cc1CO [KU0063794] (first compound 0.4 µM, partner dose 0.02 µM)",106,93.4,34.7,86,58.6,166,27.9,197,208,69.3,180,86.9,59.4,174,115
"O=C(Nc1ccccc1)c1cc([N+](=O)[O-])ccc1Cl + N#Cc1c(O)c2c(-c3ccc(-c4ccccc4O)cc3)csc2[nH]c1=O [A769662] (first compound 2 µM, partner dose 2 µM)",101,49.2,37.7,19.6,71.9,268,63.2,157,74.7,289,29.9,91.3,210,97.8,60
"CN(C)S(=O)(=O)c1ccc2c(c1)/C(=C/c1cc3c([nH]1)CCCC3)C(=O)N2 + N#Cc1c(O)c2c(-c3ccc(-c4ccccc4O)cc3)csc2[nH]c1=O [A769662] (first compound 0.4 µM, partner dose 2 µM)",124,119,80.9,75.2,54.9,38.3,82.2,70.8,75.1,108,119,245,71.6,72.5,186
"CN(C)S(=O)(=O)c1ccc2c(c1)/C(=C/c1cc3c([nH]1)CCCC3)C(=O)N2 + O=C1NC(=O)/C(=C/c2ccc(-c3ccc(F)cc3O)o2)S1 [AS252424] (first compound 0.4 µM, partner dose 1 µM)",81.3,183,146,53.3,122,270,136,106,223,301,113,119,66.6,93.6,61.1
"CN(NC(=O)CC(=O)NN(C)C(=S)c1ccccc1)C(=S)c1ccccc1 + Cn1cc(/C=C2\C(=O)Nc3cccnc32)c2ccccc21 [GW441756] (first compound 0.006 µM, partner dose 0.4 µM)",132,135,90.1,80.2,137,38.8,85.1,139,395,197,112,311,163,147,104
"Oc1nc(-c2ccc(C(F)(F)F)cc2)nc2c1CSCC2 + COc1cc(N2CCC(N3CCN(C)CC3)CC2)ccc1Nc1ncc(Cl)c(Nc2ccccc2S(=O)(=O)C(C)C)n1 [NVP-TAE684] (first compound 2 µM, partner dose 0.08 µM)",90.2,106,94.6,159,143,18.7,151,66.7,156,383,96.7,108,59,110,120
"Cc1cc([N+](=O)[O-])ccc1NS(=O)(=O)c1cc(Cl)ccc1Cl + COc1cc(N2CCC(N3CCN(C)CC3)CC2)ccc1Nc1ncc(Cl)c(Nc2ccccc2S(=O)(=O)C(C)C)n1 [NVP-TAE684] (first compound 1 µM, partner dose 0.08 µM)",50,250,80.1,410,72.3,46.1,126,169,141,148,136,209,58.9,77.2,65.9
"NCC(=O)Nc1ccc(-n2nc(C(F)(F)F)cc2-c2ccc3c(ccc4ccccc43)c2)cc1 + O=C(O)C(=O)Nc1sc2c(c1C(=O)O)CCNC2 [TCS401] (first compound 1 µM, partner dose 1.66667 µM)",134,194,149,60.7,199,451,114,123,37.1,68,38.2,111,120,86.5,175
"CCc1ccc(CCOc2ccc(CC3SC(=O)NC3=O)cc2)nc1 (stereo not given) [pioglitazone] + O=c1cc(-c2cccc3c2Sc2ccccc2S3)oc(N2CCOCC2)c1 [KU55933] (first compound 2 µM, partner dose 1 µM)",104,109,176,86.9,176,380,122,121,72.4,145,127,99.3,65.5,88.3,114
"O=C(O)C(=O)Nc1sc2c(c1C(=O)O)CCNC2 + Cn1cc(/C=C2\C(=O)Nc3cccnc32)c2ccccc21 [GW441756] (first compound 1.66667 µM, partner dose 0.4 µM)",64,46.3,81.7,229,102,106,68.5,103,83.1,163,85.9,110,87.6,95.1,72.9
"COc1ccc2c(c1)CCC1C2CCC2(C)C(NCCCCCCN3C(=O)C=CC3=O)CCC12 (stereo not given) + Cc1cc([N+](=O)[O-])ccc1NS(=O)(=O)c1cc(Cl)ccc1Cl [FH535] (first compound 0.4 µM, partner dose 1 µM)",86.3,233,42.3,32.2,160,22.8,42.3,55,35.2,106,107,112,68.7,90,56.7
"O=C(O)c1ccc(-c2c[nH]c3ncc(-c4ccccc4)cc23)cc1C1CCCC1 + O=C1NC(=O)/C(=C/c2ccc(-c3ccc(F)cc3O)o2)S1 [AS252424] (first compound 0.16 µM, partner dose 1 µM)",90.5,56,305,83.1,79.6,14.8,60.7,184,114,53.9,172,113,94.2,82.1,78.4
"COc1cc2c(Oc3ccc4[nH]c(C)cc4c3F)ncnc2cc1OCCCN1CCCC1 [cediranib] + O=C(O)C(=O)Nc1sc2c(c1C(=O)O)CCNC2 [TCS401] (first compound 0.4 µM, partner dose 1.66667 µM)",69,68.2,302,93.8,190,39.4,59,118,40.8,128,96.8,105,63.8,90.7,67.2
"CN(NC(=O)CC(=O)NN(C)C(=S)c1ccccc1)C(=S)c1ccccc1 + COc1ccc(COc2ccc(Cc3cnc(N)nc3N)cc2OC)cc1 [GW2580] (first compound 0.006 µM, partner dose 1 µM)",56.7,386,78.6,76.1,161,66.2,128,65,96.9,74.5,78.2,184,67.9,247,115

# Only cleaved PARP positive nuclei fraction (MeWo) [%] (2 entries from above):
Compound	cleaved PARP positive nuclei fraction (MeWo) [%]
O=C(O)c1ccc(-c2c[nH]c3ncc(-c4ccccc4)cc23)cc1C1CCCC1 + O=C1NC(=O)/C(=C/c2ccc(-c3ccc(F)cc3O)o2)S1 [AS252424] (first compound 0.16 µM, partner dose 1 µM)	56
COc1cc2c(Oc3ccc4[nH]c(C)cc4c3F)ncnc2cc1OCCCN1CCCC1 [cediranib] + O=C(O)C(=O)Nc1sc2c(c1C(=O)O)CCNC2 [TCS401] (first compound 0.4 µM, partner dose 1.66667 µM)	68.2

# Source: the supplement of paper PMC4604168 (melanoma cell lines)
